# Measured values published in the supplement of paper PMC12823440, “Inhibitors supercharge kinase turnover through native proteolytic circuits” (Nature, 2025).
# Protein sequences, listed by entry. Tags and fused reporters are not part of them. Lines headed by an entry give the natural chain unless they say otherwise; changes in a name come on top.
# UniProt O14965: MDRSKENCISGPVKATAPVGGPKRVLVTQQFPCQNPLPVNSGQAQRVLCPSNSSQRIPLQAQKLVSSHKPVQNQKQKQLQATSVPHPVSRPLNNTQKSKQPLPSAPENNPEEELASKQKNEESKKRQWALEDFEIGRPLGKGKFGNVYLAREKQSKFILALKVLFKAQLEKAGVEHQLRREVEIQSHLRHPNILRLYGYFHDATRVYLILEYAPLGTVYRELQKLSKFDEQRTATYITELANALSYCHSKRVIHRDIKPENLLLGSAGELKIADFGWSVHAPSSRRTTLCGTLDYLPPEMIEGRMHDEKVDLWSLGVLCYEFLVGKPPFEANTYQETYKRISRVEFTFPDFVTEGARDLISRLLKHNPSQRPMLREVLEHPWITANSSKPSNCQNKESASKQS
# The list shows a part of the results. Hit calls seldom repeat between salt and free forms of one compound.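 In K562 cells expressing nanoluciferase-fused kinases, luminescence was recorded at 4 h intervals between 2 and 18 h, normalized as percent of control with DMSO at 100% and a positive control at 0%. A significant (2 sigma) signal drop marks a time point as decreased. The authors' rule for a hit is not shown and takes in more than the number of time points.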
# Target: AURKA (UniProt O14965)
# Test: number of time points (of 5) at which kinase-Nluc abundance scored as decreased, DMSO-normalised (count); higher = more persistent destabilization
# Settings: K562; 2-18 h
row,SMILES,number of time points
1,CC1(N)CCN(c2cccnc2NC(=O)c2nc(-c3ncccc3C(F)(F)F)cnc2N)CC1 [Darovasertib] (10 µM),0
2,COc1cc(N2CCC(N3CCN(C)CC3)CC2)ccc1Nc1ncc(Cl)c(-c2c[nH]c3ccccc23)n1 (2.5 µM),0
3,CN1CCN(c2ccc(Nc3ncc4cc(C#N)c(=O)n(C5CCCC5)c4n3)cc2)CC1 (10 µM),1
4,CO[C@H]1CC[C@H](N2C(=O)CNc3ncc(-c4ccc(C(C)(C)O)nc4)nc32)CC1 (2.5 µM),0
5,Cc1c(C(=O)Nc2ccc(Oc3ccnc4[nH]cc(-c5ccccc5)c34)c(F)c2)c(=O)n(-c2ccc(F)cc2)n1C (10 µM),0
6,COc1ccc(Nc2ncc(C(F)(F)F)c(NC3CC3)n2)cc1OC (10 µM),1
7,C[C@@H]1O[C@@H](Oc2cc(O)c3c(=O)c(O[C@@H]4O[C@@H](C)[C@H](O)[C@@H](O)[C@H]4O)c(-c4ccc(O)cc4)oc3c2)[C@H](O)[C@H](O)[C@H]1O [Kaempferitrin] (10 µM),0
8,COC(=O)Nc1ccc(-c2nc(N3CCOCC3)c3cnn(C4CCN(Cc5cccnc5)CC4)c3n2)cc1 (10 µM),0
9,CC(C)Oc1ccc(F)c(-c2cnc(N)c(C(=O)Nc3cnccc3N3CCC[C@@H](C(=O)O)C3)n2)c1 (2 µM),0
10,O=Nc1c(-c2c(O)[nH]c3cc(Br)ccc23)[nH]c2ccccc12 [GSK 3 Inhibitor IX] (2.5 µM),4
11,NCC1CCC(CNc2nc(NCc3ccccc3OC(F)(F)F)ncc2[N+](=O)[O-])CC1 (stereo unspecified) [PKC-theta inhibitor] (10 µM),4
12,N[C@@H]1CCCN(c2c(/C=C3\SC(=O)NC3=O)cccc2-c2ccccc2)C1 (10 µM),0
13,CCn1c(-c2nonc2N)nc2c(C#CC(C)(C)O)ncc(OC[C@H]3CCCNC3)c21 (10 µM),0
14,CNC(=O)c1cc2c(Oc3ccc(NC(=O)C4(C(=O)Nc5ccc(F)cc5)CC4)cc3)ccnc2cc1OC (2.5 µM),2
15,C=CC(=O)N1CC[C@@H](Oc2nc(Nc3ccc(N4CCC(N5CCN(C)CC5)CC4)cc3)c(C(N)=O)nc2CC)C1 [Naquotinib (mesylate)] (2.5 µM),0
16,C=CC(=O)Nc1cc(Nc2nccc(-c3cn(C)c4ccccc34)n2)c(OC)cc1OCCN(C)C [Rezivertinib] (2.5 µM),0
17,Oc1c(F)cc(-c2cnccc2-c2ccc(N3CCOCC3)cc2)cc1F (10 µM),0
18,Brc1ccc(CSc2nc3ccccc3o2)cc1 [BMP signaling agonist sb4] (10 µM),0
19,O=C1OC(/C=C/c2ccccc2)=NC/1=C\c1cccnc1 (10 µM),0
20,O=C(NCCN1CCOCC1)Nc1nc2ccc(Sc3nnc4ccc(-c5ccc(F)cc5)nn34)cc2s1 (10 µM),0
21,Cn1c(CNc2cccc(C(=O)NCc3ccccc3C(F)(F)F)c2)nnc1-c1ccncc1 (10 µM),0
22,COc1cc2cc(Oc3ccc4ccc(=O)oc4c3)c(=O)oc2cc1O [Daphnoretin] (10 µM),0
23,O=C(O)c1cc(N(Cc2ccccc2O)Cc2cc(O)ccc2O)ccc1O [Lavendustin A] (10 µM),0
24,Cc1c(Cl)cccc1S(=O)(=O)Nc1nc(NCCc2ccccc2)nc2c1CN(Cc1ccccc1)CC2 (2.5 µM),0
25,CO[C@H]1C[C@@H]2CC[C@@H](C)[C@@](O)(O2)C(=O)C(=O)N2CCCC[C@H]2C(=O)O[C@H]([C@H](C)C[C@@H]2CC[C@@H](OC(=O)C(C)(CO)CO)[C@H](OC)C2)CC(=O)[C@H](C)/C=C(\C)[C@@H](O)[C@@H](OC)C(=O)[C@H](C)C[C@H](C)/C=C/C=C/C=C/1C [Temsirolimus] (2.5 µM),0
26,O=C1Nc2ccc(CN3C(=O)CSC3=O)cc2/C1=C/c1cc(CN2CCOCC2)c[nH]1 (10 µM),0

# Copied from above, entries 11–12
row,SMILES,number of time points
11,NCC1CCC(CNc2nc(NCc3ccccc3OC(F)(F)F)ncc2[N+](=O)[O-])CC1 (stereo unspecified) [PKC-theta inhibitor] (10 µM),4
12,N[C@@H]1CCCN(c2c(/C=C3\SC(=O)NC3=O)cccc2-c2ccccc2)C1 (10 µM),0
